{"source": "PubChem BioAssay AID1259308 – NCATS – 2017", "purpose": "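Knock-downs that increase output of a recombinant reporter protein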 (primary screen)", "cell system": "human HEK293 embryonic kidney cells stably expressing firefly luciferase (HEK-CMV-Luc2-Hygro)", "reagent": "single siRNA against human genes, 0.8 pmol siRNA per well", "time to read-out": "72 h", "measured": "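Reporter luminescence and viable-cell signal on separate replicate plates, given as percent of non-targeting control and median/MAD z-scores, plus per-cell luciferase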", "direction": "total luciferase, z-score and total luciferase, % of control: higher = more reporter protein produced", "rule for the call": "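Active when the median/MAD z-score for overall luciferase is greater than 3; a gene was taken forward for validation with new siRNAs if at least two of its three siRNAs passed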", "meaning of the calls": "active = raised luciferase; inactive = no rise", "note": "This is an unselected part of about 59,000 deposited reagents. About 1,510 of them (2.6%) count as active. 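Calls use total luciferase alone and ignore viability, so some active siRNAs may act by altering cell number.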 A number with no mark means an inactive call. Reagents against one gene are numbered here. Not all columns of the deposit are shown."}
{"gene": "FXYD5 (GeneID 53827)", "reagent": 1, "total luciferase, z-score": -0.495, "total luciferase, % of control": 72.1}
{"gene": "FXYD5 (GeneID 53827)", "reagent": 2, "total luciferase, z-score": 0.616, "total luciferase, % of control": 94.1}
{"gene": "FXYD5 (GeneID 53827)", "reagent": 3, "total luciferase, z-score": "4.2 (active)", "total luciferase, % of control": 165}
{"gene": "MYCT1 (GeneID 80177)", "reagent": 1, "total luciferase, z-score": 0.474, "total luciferase, % of control": 91.3}
{"gene": "MYCT1 (GeneID 80177)", "reagent": 2, "total luciferase, z-score": 0.0241, "total luciferase, % of control": 82.4}
{"gene": "MYCT1 (GeneID 80177)", "reagent": 3, "total luciferase, z-score": 1.79, "total luciferase, % of control": 117}
{"gene": "PRR13 (GeneID 54458)", "reagent": 1, "total luciferase, z-score": "3.4 (active)", "total luciferase, % of control": 149}
{"gene": "PRR13 (GeneID 54458)", "reagent": 2, "total luciferase, z-score": -1.49, "total luciferase, % of control": 52.3}
{"gene": "PRR13 (GeneID 54458)", "reagent": 3, "total luciferase, z-score": -0.196, "total luciferase, % of control": 78}
{"gene": "GSTT1 (GeneID 2952)", "reagent": 1, "total luciferase, z-score": 1.1, "total luciferase, % of control": 104}
{"gene": "GSTT1 (GeneID 2952)", "reagent": 2, "total luciferase, z-score": -0.68, "total luciferase, % of control": 68.4}
{"gene": "GSTT1 (GeneID 2952)", "reagent": 3, "total luciferase, z-score": 1.12, "total luciferase, % of control": 104}
{"gene": "BASP1 (GeneID 10409)", "reagent": 1, "total luciferase, z-score": -0.75, "total luciferase, % of control": 67}
{"gene": "BASP1 (GeneID 10409)", "reagent": 2, "total luciferase, z-score": -0.109, "total luciferase, % of control": 79.7}
{"gene": "BASP1 (GeneID 10409)", "reagent": 3, "total luciferase, z-score": 0.307, "total luciferase, % of control": 88}
{"gene": "EMSY (GeneID 56946)", "reagent": 1, "total luciferase, z-score": 1.78, "total luciferase, % of control": 117}
{"gene": "EMSY (GeneID 56946)", "reagent": 2, "total luciferase, z-score": 0.695, "total luciferase, % of control": 95.7}
{"gene": "EMSY (GeneID 56946)", "reagent": 3, "total luciferase, z-score": 1.7, "total luciferase, % of control": 116}
{"gene": "IFT74 (GeneID 80173)", "reagent": 1, "total luciferase, z-score": -0.409, "total luciferase, % of control": 73.8}
{"gene": "IFT74 (GeneID 80173)", "reagent": 2, "total luciferase, z-score": -0.512, "total luciferase, % of control": 71.7}
{"gene": "IFT74 (GeneID 80173)", "reagent": 3, "total luciferase, z-score": -0.225, "total luciferase, % of control": 77.4}
{"gene": "CLDN19 (GeneID 149461)", "reagent": 1, "total luciferase, z-score": -2.91, "total luciferase, % of control": 23.9}
{"gene": "CLDN19 (GeneID 149461)", "reagent": 2, "total luciferase, z-score": 1.05, "total luciferase, % of control": 103}
{"gene": "CLDN19 (GeneID 149461)", "reagent": 3, "total luciferase, z-score": -0.72, "total luciferase, % of control": 67.6}
{"gene": "IDI2 (GeneID 91734)", "reagent": 1, "total luciferase, z-score": -0.341, "total luciferase, % of control": 75.1}
{"gene": "IDI2 (GeneID 91734)", "reagent": 2, "total luciferase, z-score": -0.875, "total luciferase, % of control": 64.5}
{"gene": "IDI2 (GeneID 91734)", "reagent": 3, "total luciferase, z-score": -0.38, "total luciferase, % of control": 74.3}
{"gene": "CT47B1 (GeneID 643311)", "reagent": 1, "total luciferase, z-score": -0.398, "total luciferase, % of control": 74}
{"gene": "CT47B1 (GeneID 643311)", "reagent": 2, "total luciferase, z-score": 2.46, "total luciferase, % of control": 131}
{"gene": "CT47B1 (GeneID 643311)", "reagent": 3, "total luciferase, z-score": 0.705, "total luciferase, % of control": 95.9}
{"gene": "RBAK (GeneID 57786)", "reagent": 1, "total luciferase, z-score": -0.204, "total luciferase, % of control": 77.8}
{"gene": "RBAK (GeneID 57786)", "reagent": 2, "total luciferase, z-score": 0.37, "total luciferase, % of control": 89.2}
{"gene": "RBAK (GeneID 57786)", "reagent": 3, "total luciferase, z-score": -1.22, "total luciferase, % of control": 57.5}
{"gene": "TRAK1 (GeneID 22906)", "reagent": 1, "total luciferase, z-score": -0.289, "total luciferase, % of control": 76.1}
{"gene": "TRAK1 (GeneID 22906)", "reagent": 2, "total luciferase, z-score": -0.813, "total luciferase, % of control": 65.7}
{"gene": "TRAK1 (GeneID 22906)", "reagent": 3, "total luciferase, z-score": -1.02, "total luciferase, % of control": 61.5}
{"gene": "NEUROD4 (GeneID 58158)", "reagent": 1, "total luciferase, z-score": -1.01, "total luciferase, % of control": 61.8}
{"gene": "NEUROD4 (GeneID 58158)", "reagent": 2, "total luciferase, z-score": 0.715, "total luciferase, % of control": 96.1}
{"gene": "NEUROD4 (GeneID 58158)", "reagent": 3, "total luciferase, z-score": -1.83, "total luciferase, % of control": 45.5}
{"gene": "TRMT44 (GeneID 152992)", "reagent": 1, "total luciferase, z-score": -0.901, "total luciferase, % of control": 64}
{"gene": "TRMT44 (GeneID 152992)", "reagent": 2, "total luciferase, z-score": 0.621, "total luciferase, % of control": 94.2}
{"gene": "TRMT44 (GeneID 152992)", "reagent": 3, "total luciferase, z-score": 0.249, "total luciferase, % of control": 86.8}
